Source: PubChem BioAssay AID493014 (National Center for Advancing Translational Sciences (NCATS), 2011)
Screen size: about 340,000 compounds; about 170 (0.05%) were called active. The inconclusive results got no clear call from the source; some entries with a clear call stand among them for comparison. Calls come from the whole dose curve; as a rule, active = well fitted inhibition curve with a large enough effect in the signal ratio, with a control signal flat (not every such curve was filed as active); inconclusive = small, poorly fitted or top-dose-only effect, or effect the other way, or a change in a side signal; inactive = flat fitted curve, though single readings scatter; the % refers to the signal ratio. Where the call is inconclusive, the potency comes from a doubtful curve fit.

Test: qHTS Assay to Find Inhibitors of Chronic Active B-Cell Receptor Signaling;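 for activity change, negative = inhibition: plate controls were basal doxycycline-induced cells for no effect and cells given 10 µM MG132 for full effect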
Conditions: ABC-DLBCL IkBa-CBG/CBR reporter, luminescence ratio (green luciferase fused to IkBa over red control in TMD8 lymphoma cells), 4 h; activity change, negative = inhibition: at 46.1 µM (top of the series)
Method in brief: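 Cell line TMD8 (human ABC DLBCL), stably expressing tet-inducible CBG68-IkBa fusion and CBR; IMDM/0.5% FBS; cpd up to 46 uM; dox induction, 4 h, 37C/5% CO2; dual luminescence; green/red ratio; MG132 control.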
Potency is the fitted concentration of half-maximal effect.

| Compound | Potency | activity change, negative = inhibition |
| --- | --- | --- |
| COc1cccc(OCc2cc(/C=N/NC(=O)c3ccn[nH]3)ccc2OC)c1 | inconclusive: 20 µM [falling, partial curve] | – |
| OCc1ccccc1OCCOc1ccc(Cl)c2cccnc12 | – | inactive |
| CN(C1CCCCC1)S(=O)(=O)c1ccc(C(=O)N2CCN(c3nc4ccccc4s3)CC2)cc1 | – | inactive |
| Cc1cc(NCCC(C)C)n2nc(C)c(-c3ccccc3)c2n1 | inconclusive: 0.058 µM [rising, full curve, poor fit] | – |
| Cc1ccc(NCC(O)Cn2cnc3c2c(=O)n(C)c(=O)n3C)cc1 (centres undefined) | – | inconclusive: -0.801% |
| Cc1ccc(CNC(=S)NC2CCCCC2)cc1 | – | inactive |
| O=C(Cn1cc(C(F)(F)F)cc(Cl)c1=O)NCc1ccc(Cl)cc1Cl | – | inactive |
| Cc1cccc(NC(=O)C2CCCN(c3cnccn3)C2)c1 (centres undefined) | – | inactive |
| COCCNC(=O)C(=O)Nc1ccc2c(c1)N(S(=O)(=O)c1cccs1)CCC2 | inconclusive: 20.6 µM [falling, partial curve] | – |
| CCc1ccc(Nc2nc(N)nc(CSc3nnnn3-c3ccccc3)n2)cc1 | – | inconclusive: 5.33% |
| COc1ccc(Nc2cc(Sc3ccc(OC)cc3)ncn2)cc1 | – | inconclusive: -6.78% |
| O=C(CCN1C(=O)/C(=C\c2ccccc2)SC1=S)NCCCN1CCOCC1 | – | inconclusive: -0.162% |
| CC(C)CC1NC(=S)N(C2CCCCC2)C1=O (centres undefined) | – | inactive |
| O=S1(=O)CCN(Cc2cccc(C(F)(F)F)c2)CC1 | – | inactive |
| Cc1ccccc1NC(=O)c1[nH]cnc1C(=O)NN | – | inactive |
| Cc1cc(C)c(C(=O)CC(=O)c2ccccc2Cl)c(O)c1 | – | inconclusive: 7.76% |
| CCc1ccc(CNC(=O)C2CCCN(S(=O)(=O)N(CC)c3ccccc3)C2)cc1 (centres undefined) | – | inconclusive: -15.8% |
| O=C(NC1CCCCC1)c1ccccc1NC(=S)NC(=O)C1CC1 | – | inactive |
| N#Cc1ccc2c(c1)C[C@]1(CCCCN3C(=O)c4ccccc4C3=O)Oc3c(c(=O)oc4ccccc34)C2O1 | inconclusive: 5.62 µM [rising, single point] | – |
| CCCc1[nH]c2ccc(C(=O)OC)cc2c1CCC | – | inconclusive: 27.3% |
| Cc1ccc(C(=O)Oc2cccc(NC(=O)c3cccs3)c2)cc1S(=O)(=O)N1CCOCC1 | inconclusive: 16.4 µM [falling, partial curve] | – |
| COCCCNCCCOc1ccc(Cl)cc1Br | – | inactive |
| O=C(CSc1nnc2nnc3ccccc3n12)N1CCOCC1 | inconclusive: 1.12 µM [falling, full curve] | – |
| O=C(c1cccc([N+](=O)[O-])c1)n1nc(-c2ccccc2)nc1NCc1ccccc1 | inconclusive: 18.4 µM [falling, single point] | – |
